Results as given in patent publication US6686370B2, “Triazospiro compounds having nociceptin receptor affinity” (Euro-Celtique S.A., priority 1999, dated 2004).

The chains behind the UniProt entries cited, without tags or fusion partners. Where a name states a change or a piece, a line headed by the entry shows the natural chain unless it says otherwise.
UniProt P41146: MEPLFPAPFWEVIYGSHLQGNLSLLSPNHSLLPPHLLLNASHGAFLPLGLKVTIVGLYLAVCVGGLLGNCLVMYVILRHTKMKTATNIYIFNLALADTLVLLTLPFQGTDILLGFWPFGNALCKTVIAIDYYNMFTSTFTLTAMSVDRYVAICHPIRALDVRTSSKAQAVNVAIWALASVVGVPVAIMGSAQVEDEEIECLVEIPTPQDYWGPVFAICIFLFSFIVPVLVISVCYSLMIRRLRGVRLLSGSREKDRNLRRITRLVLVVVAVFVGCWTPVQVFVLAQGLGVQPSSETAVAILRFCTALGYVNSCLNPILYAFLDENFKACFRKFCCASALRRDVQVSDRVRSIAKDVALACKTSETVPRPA

Target: human opioid receptor-like receptor (ORL-1) (Homo sapiens, UniProt P41146)
Experiment: biochemical

Compound: O=C1NCN(c2ccccc2)C12CCN(CCCC(c1ccc(F)cc1)c1ccc(F)cc1)CC2 [8-[4,4-Bis(p-fluorophenyl)butyl]-1-phenyl-1,3,8-triazospiro[4.5]decan-4-one]
- Ki: 168 nM
